This is an account of results in the supplement of paper PMC5949888.

Most values lie at the floor of the assay. Slopes are relative: functional sequences can read slightly below zero. Bounds are passed on as bounds.

This series relates to Saccharomyces cerevisiae PS128 hsf1 delta, HSF1(1-493) fusion. The series can be described thus: growth estimate (transactivation domain function in HSF1 fusion, heat-shock survival) (a.u. (slope of normalised read count over time)); higher = stronger growth at 37°C, i.e. more transactivation activity. The note with it: library: random library. On the procedure: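 Random 60-nt DNA library encoding peptides of up to 20 aa, fused to the C-terminus of yeast HSF1 residues 1-493 (C-terminal TAD deleted) and expressed from the native HSF1 promoter on a CEN plasmid in hsf1-deleted S. cerevisiae PS128. Cells were selected at 37°C on -trp 5-FOA plates for 0, 2, 4, 6 and 8 days and amplicons were sequenced. Growth estimate is the slope of a robust linear fit of total-sum-normalised read counts (normalised to the first time point) over time, using at least 2 replicates. Sequences are classed functional (TAD activity) above a threshold of -0.13, set from stop-codon control sequences.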
As to PKVTIGHLN, the growth estimate is less than -0.25.

For the substance GSFAVLFGRWI, the growth estimate was less than -0.25.

In the case of VLVQDAVPFYPSGSAKVLA, the growth estimate was less than -0.25.

For LHAYHPTLKYGEPQWAPESN, the growth estimate was less than -0.25.

For LLSIRENQNWMAAIVTGSVT, the growth estimate was less than -0.25.

Take WISDTVKSVAPPPLKMMVCH: the growth estimate was -0.246.

Turning to RNCTGNRSRGIRAFFADLGP, the growth estimate is less than -0.25.

Turning to VETLTYGTESGIRVAMVSPG, the growth estimate was less than -0.25.

RIRIFCYLSASLSINLDGKQ: the growth estimate was less than -0.25.

As to KWMLHTGAWFFTYLLNER, the growth estimate is less than -0.25.

In the case of IIRSLCEESSGSVERG, the growth estimate was less than -0.25.

QELSFTLD: the growth estimate is less than -0.25.

For the substance YGSRMVFQVARLGRSHMQLR, the growth estimate is less than -0.25.

With KGTTYIRRIE, the growth estimate is less than -0.25.

As for YMYMR, the growth estimate is less than -0.25.

RSIRLSGVLHRYEGRTSFFA: the growth estimate is less than -0.25.

On to TRYQTLLEVIE, for which the growth estimate is less than -0.25.

For the substance LEVGVGVMFGLTSCAEEVAG, the growth estimate is less than -0.25.

For the substance VPINASNTPMTDRAPRESSD, the growth estimate is less than -0.25.

Regarding RGLRE, the growth estimate is -0.126.

Turning to GPTAYLWTIRLQRVEVEPGV, the growth estimate is less than -0.25.

Consider CRVECGNGDLSRHLGGILAV, for which the growth estimate was less than -0.25.

Consider KSGWFW, for which the growth estimate is less than -0.25.

For SKVRLRGAMNLL, the growth estimate is -0.231.

As to LTYGTRTPVLQAVR, the growth estimate was less than -0.25.

In the case of WVLGTRCC, the growth estimate is less than -0.25.

Take MHIRRDPFLCRSIRSGDRPR: the growth estimate was less than -0.25.

Take AAFIPTRITWLSKRAQSTAK: the growth estimate is less than -0.25.

For RVDVLMSK, the growth estimate is less than -0.25.

Turning to KGCVRRPSTGSCVIHESIGA, the growth estimate was less than -0.25.

In the case of AMISG, the growth estimate is less than -0.25.

Turning to AQAIVCNESCLPSRVSLLP, the growth estimate is less than -0.25.

IVTRVRRLFNALHGEGVPAK: the growth estimate is less than -0.25.

DPIR: the growth estimate was less than -0.25.

With RGSVGRILPDRVRNQFYPAS, the growth estimate was less than -0.25.

Take STLAVRRIDPSRLLLVSLSA: the growth estimate was less than -0.25.

GQWKGLVALR: the growth estimate was less than -0.25.

In the case of VSTTIGYKCLNGCTVYPGCS, the growth estimate is less than -0.25.

On to TGSPTDQR, for which the growth estimate was less than -0.25.

Turning to QFASATEVTTIYT, the growth estimate is less than -0.25.

Take LDVGSLCRLTAVRLWRTKPD: the growth estimate is less than -0.25.

On to VAINLVWPDVSVNGQMFYEA, for which the growth estimate was -0.173.

In the case of RCPLACMLRDVGTIPAQYFR, the growth estimate was less than -0.25.

Take PSILITQRLI: the growth estimate was less than -0.25.

Take TTPPEYSSAGRSLPQILRDP: the growth estimate is less than -0.25.

As to RHYIDTSLGRSKGGGFGKPY, the growth estimate was less than -0.25.

Regarding AVISYQHRSTAIRINGTSGP, the growth estimate is less than -0.25.

Turning to KLEPQAYYKS, the growth estimate was less than -0.25.

VAMARGPSSSKGSSSYSERN: the growth estimate is -0.25.

With AWSKFRTHEKSPPSHCCNIL, the growth estimate was less than -0.25.

In the case of DPY, the growth estimate is less than -0.25.

On to INMALAVSLPLFPFVSHRNS, for which the growth estimate was less than -0.25.

Regarding LWDLRGLRRMKSCLRLTRLY, the growth estimate is less than -0.25.

Consider DSSAHRW, for which the growth estimate was less than -0.25.

Regarding KGINDLAQRGIL, the growth estimate was less than -0.25.

As for CGNYR, the growth estimate is less than -0.25.

As to LNPRMCENCSLDSGGWSIPR, the growth estimate was less than -0.25.

Regarding NVWMLFTDKHVGDPRDPAHY, the growth estimate is -0.248.

HNGVYTPFSGTN: the growth estimate was less than -0.25.

Turning to LRSPAYPAACHQSSR, the growth estimate is less than -0.25.

On to FTMEYLGIAADLTVGHRK, for which the growth estimate is less than -0.25.

Consider YMQSAR, for which the growth estimate was less than -0.25.

For AMSG, the growth estimate is less than -0.25.

Consider NSPARVPATAG, for which the growth estimate was less than -0.25.

Turning to FYLLLKRERCVSFR, the growth estimate was less than -0.25.

As for LAFSENYGHSRSANCVEAGI, the growth estimate is less than -0.25.

As for HTVLGA, the growth estimate was less than -0.25.

As to WDG, the growth estimate was less than -0.25.

HFPASLRDRTTRPT: the growth estimate was less than -0.25.

GSIGRESGVRKSGVV: the growth estimate was less than -0.25.

For the substance LWQYWLCAVNRESHPRADHL, the growth estimate was less than -0.25.

For RRITIIELGRR, the growth estimate is less than -0.25.

As for EDVLVSCRRSRSKDGGRPVY, the growth estimate was less than -0.25.

For SRPVIYASSRQNLRGICLYG, the growth estimate was less than -0.25.

In the case of MRQLGSLMDVSSG, the growth estimate is less than -0.25.

As for LPPRARRANAKGAALVEKQL, the growth estimate was less than -0.25.

As to GFDAGQYAPGSNNRSGSTAG, the growth estimate is less than -0.25.

On to RILSERFPTAGPRYHAS, for which the growth estimate is less than -0.25.

PRMTRHRPSCIVLVHQWCTQ: the growth estimate is less than -0.25.

Consider SRQIGEIIDSSRQAHTL, for which the growth estimate is less than -0.25.

IYPSLCSTCQGLSDSGTNTK: the growth estimate is less than -0.25.

For the substance IGGVGP, the growth estimate was less than -0.25.

With AGDVMGATPLSRASAPLSNT, the growth estimate was less than -0.25.

As for PGV, the growth estimate is less than -0.25.

Turning to VLFPQPSCEEIGYRRLNSPY, the growth estimate was less than -0.25.

Consider CSYRDLCRNKATKEVNKRFV, for which the growth estimate was less than -0.25.

As to SLQHLSERNVIKW, the growth estimate was less than -0.25.

In the case of AVEQGTSFSSGIALRNLGRR, the growth estimate is less than -0.25.

ATDHAPELF: the growth estimate was -0.232.

Take SILGVRARELGRAEGTGFLR: the growth estimate was less than -0.25.

As for TAGL, the growth estimate is less than -0.25.

Consider EIVL, for which the growth estimate is -0.236.

As for SVAQLARADSRLSSREGFLR, the growth estimate is less than -0.25.

With WRAVLHGRLTLRWAPSE, the growth estimate is less than -0.25.

For the substance REASLRKK, the growth estimate is less than -0.25.

LGELNAKFSAAFQTAFIESC: the growth estimate was less than -0.25.

As for MNNVTVGKCRLRQTMGFPRT, the growth estimate is less than -0.25.

As for GCFL, the growth estimate is less than -0.25.

SPLAVISEALATSRGHYYAH: the growth estimate was less than -0.25.

For SWYILKYSPMGRHSALAPMA, the growth estimate was less than -0.25.

For the substance DPKPLAVDAGKRYIRS, the growth estimate was less than -0.25.

In the case of DVKRWPMMSAGTFYQQKRC, the growth estimate is less than -0.25.

On to WIFVSAVEDDLLS, for which the growth estimate is -0.197.

With WIHVGDGWSMLKFWGPTVGM, the growth estimate was less than -0.25.

Consider PRQQSSVAELMCFCRRRVGY, for which the growth estimate was less than -0.25.

As to LGGAKAVWSKYWIIVPIYGS, the growth estimate is less than -0.25.

As to PLRGIRRVAGFLGLIPADIG, the growth estimate was less than -0.25.

Take ASAAVPDLIVRI: the growth estimate is less than -0.25.

Consider FLAPT, for which the growth estimate is less than -0.25.

Turning to LQIY, the growth estimate was less than -0.25.

LMLANRQPTERRGVKVRRTP: the growth estimate was less than -0.25.

As to SCGTESYPARDHRHRQC, the growth estimate was less than -0.25.

Regarding LRIELAVGGWECFWQHTECG, the growth estimate was less than -0.25.

Consider TIGSGGVAARVSRWPVREDG, for which the growth estimate is less than -0.25.

Regarding FCRISESGRLATTSSWLVRA, the growth estimate is less than -0.25.

SCGFSVVRRLRVGTNRCP: the growth estimate is less than -0.25.

As to SGRMRSTKINPGLHRLKADV, the growth estimate was less than -0.25.

Turning to PAEGESSRSNAFKMPPLLRH, the growth estimate is less than -0.25.

Regarding LATVRGLGLKDRTNVPHVGI, the growth estimate is less than -0.25.

With WSRCPSGIPGSHIGGVALGK, the growth estimate is less than -0.25.

In the case of AARDDISLGGGVSNSRMVAT, the growth estimate is less than -0.25.

GGSKGR: the growth estimate was -0.246.

As to VRLRQSDVLRAHHSFDNGEK, the growth estimate is less than -0.25.

Regarding RNPERSPHGSAVSYRT, the growth estimate is less than -0.25.

As for PVQLQILSRVNTYPPACICC, the growth estimate is less than -0.25.

On to GRWEKVKIEKGEP, for which the growth estimate is less than -0.25.

SEAFAFYGMYRLRRRGFSEG: the growth estimate was less than -0.25.

For the substance CGAY, the growth estimate is less than -0.25.

In the case of WDNLL, the growth estimate was less than -0.25.

In the case of KRRMCEYFQKRSIATAAFMP, the growth estimate is less than -0.25.

For the substance YLW, the growth estimate is less than -0.25.

For the substance GSEPGGAKALQIQRASVPRA, the growth estimate is less than -0.25.

Consider YLTGLYVNSSNGPPCWRIEG, for which the growth estimate is less than -0.25.

In the case of SVVITTTVMSTWRFHYLI, the growth estimate is less than -0.25.

As to GRTSIGQCCLHALQPRTMQS, the growth estimate is less than -0.25.

Consider LLDTCRIHKLRGI, for which the growth estimate is less than -0.25.

On to FRLRRKNNKESGVREVRSDP, for which the growth estimate is -0.245.

Consider LNVAPDDCGRRM, for which the growth estimate is less than -0.25.

As for RLSRCLRAARKRLVRGLGEE, the growth estimate is less than -0.25.

Consider SLSLQIEGNPGKRTRTPGRC, for which the growth estimate is less than -0.25.

For FLYCGFSAQGLTTRFIQLQQ, the growth estimate is less than -0.25.

For the substance ILVTAAPNAA, the growth estimate was less than -0.25.

Consider REPVMLLSRSYLDVPARLSS, for which the growth estimate is less than -0.25.

In the case of TDLTQYTWPERSTRHISMLF, the growth estimate was less than -0.25.

For the substance HVTVARDP, the growth estimate is less than -0.25.

For the substance YKIRCQWSQPIGAVNHWAGR, the growth estimate was less than -0.25.

On to QRAGSAGEGPVVELGHSFDL, for which the growth estimate was less than -0.25.

As to GMKVSVLRVGAGKLSSLMKS, the growth estimate is less than -0.25.

As to TFEHLQQAP, the growth estimate was less than -0.25.
